In PMC6232118 one finds binding data, which are given here for one molecule.

Assay [1] has as its target T1, FlhD from E. coli with carboxy-terminal hexa-histidine (E. coli MG1655) (UniProt P0A8S9).
T1 sequence: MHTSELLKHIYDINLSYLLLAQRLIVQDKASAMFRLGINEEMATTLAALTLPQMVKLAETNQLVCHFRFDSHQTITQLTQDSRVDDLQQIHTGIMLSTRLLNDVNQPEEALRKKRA
As to the kind of experiment: pull-down; co-purification of FlhC with FlhD-His6 on a 5 ml His-trap (Ni) column after co-expression in E. coli BL21; Tricine SDS-PAGE, Coomassie staining.

Assay [2] concerns the target T1, FlhD from E. coli with carboxy-terminal hexa-histidine (E. coli MG1655). Put plainly: co-purification on a heparin column; FlhD-His6 and FlhC co-expressed in E. coli BL21, complex recovered on a 5 ml heparin column (used to mimic DNA); Tricine SDS-PAGE, Coomassie staining.

These are yes or no findings as the source states them, for the method shown. For some assays here: In cells and extracts the contact can be indirect. Some entries that bind do so weakly or less than the wild type. Where a sequence is shown, tags or fusion partners need not be part of it.

B1: FlhC from E. coli (protein, UniProt P0ABY7 1-192)
chain: MSEKSIVQEARDIQLAMELITLGARLQMLESETQLSRGRLIKLYKELRGSPPPKGMLPFSTDWFMTWEQNVHASMFCNAWQFLLKTGLCNGVDAVIKAYRLYLEQCPQAEEGPLLALTRAWTLVRFVESGLLQLSSCNCCGGNFITHAHQPVGSFACSLCQPPSRAVKRRKLSQNPADIIPQLLDEQRVQAV
Turning to B1, the binding result in assay [1] and in assay [2] was “binds” in each case.
